These are yes or no findings as the source states them, for the method shown. In cells and extracts the contact can be indirect. Some results given as binding are weak or reduced against the parent protein; the word gives no strength.

Amino acid sequences for entries named in this document (tags omitted).
UniProt Q96EB6: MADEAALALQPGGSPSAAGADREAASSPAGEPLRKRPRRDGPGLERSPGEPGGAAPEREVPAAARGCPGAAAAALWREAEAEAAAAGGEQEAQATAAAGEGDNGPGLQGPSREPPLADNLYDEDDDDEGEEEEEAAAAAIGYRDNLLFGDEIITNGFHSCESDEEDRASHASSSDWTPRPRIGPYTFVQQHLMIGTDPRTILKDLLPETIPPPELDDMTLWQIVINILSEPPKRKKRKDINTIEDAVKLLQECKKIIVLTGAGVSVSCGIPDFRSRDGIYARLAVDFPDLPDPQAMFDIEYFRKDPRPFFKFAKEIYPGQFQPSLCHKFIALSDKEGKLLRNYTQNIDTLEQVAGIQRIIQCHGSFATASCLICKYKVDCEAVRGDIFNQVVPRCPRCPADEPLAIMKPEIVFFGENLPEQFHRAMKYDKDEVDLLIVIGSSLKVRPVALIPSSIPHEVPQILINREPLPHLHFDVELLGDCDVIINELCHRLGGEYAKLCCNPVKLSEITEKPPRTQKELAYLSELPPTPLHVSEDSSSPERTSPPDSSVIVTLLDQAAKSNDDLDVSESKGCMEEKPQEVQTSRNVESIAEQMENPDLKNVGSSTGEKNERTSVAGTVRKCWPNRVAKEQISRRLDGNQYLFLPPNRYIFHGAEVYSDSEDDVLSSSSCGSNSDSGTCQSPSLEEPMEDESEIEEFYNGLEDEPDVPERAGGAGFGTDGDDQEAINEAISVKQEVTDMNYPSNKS

For assay [1], the target named is SIRT1 (human (endogenous in HEK 293T and MCF-7)) (UniProt Q96EB6). The assay can be described thus: co-IP; HEK 293T lysate (IP lysis buffer), precleared with IgG and Protein A/G agarose; precipitated with SIRT1 (IF3) mouse mAb, 4 C; Western blot; IgG as negative control. A general note: A western blot detects proteins with antibodies after separation by electrophoresis.

Assay [2] shares this target. The assay can be described thus: co-IP; MCF-7 lysate (IP lysis buffer), precleared with IgG and Protein A/G agarose; precipitated with SIRT1 (IF3) mouse mAb, 4 C; Western blot; IgG as negative control.

Regarding “Ras-GTPase-activating protein SH3 domain-binding protein 1 (G3BP1) (from UniProt Q13283-1 1-466)”, the binding result in assay [1] and in assay [2] was “binds” throughout.

For the origin of these results see PMC9774693.
